Test [1] has as its target NH2-terminal His-tagged human recombinant OCT4 protein (human) (UniProt Q01860). The experiment in a line: pull-down; Ni-NTA pull down using purified proteins (His-OCT4 and MK2-mycDDK); both purified.
Test [2] addresses mycDDK-tagged wild-type OCT4 (POU5F1) (human) (UniProt Q01860). Nature of the test: co-IP; immunoprecipitation from subcellular fractions (nuclear) of LHN-R cells stably transduced with doxycycline-inducible OCT4-mycDDK; immunoblot. A general note: A western blot detects proteins with antibodies after separation by electrophoresis.
The target of test [3] is COOH-terminal mycDDK-tagged human recombinant MK2 protein (human) (UniProt P49137). The experiment in a line: co-IP; immunoprecipitation by anti-FLAG using purified proteins (MK2-mycDDK and His-OCT4); both purified.

The chains behind the UniProt entries cited, without tags or fusion partners.
UniProt Q01860: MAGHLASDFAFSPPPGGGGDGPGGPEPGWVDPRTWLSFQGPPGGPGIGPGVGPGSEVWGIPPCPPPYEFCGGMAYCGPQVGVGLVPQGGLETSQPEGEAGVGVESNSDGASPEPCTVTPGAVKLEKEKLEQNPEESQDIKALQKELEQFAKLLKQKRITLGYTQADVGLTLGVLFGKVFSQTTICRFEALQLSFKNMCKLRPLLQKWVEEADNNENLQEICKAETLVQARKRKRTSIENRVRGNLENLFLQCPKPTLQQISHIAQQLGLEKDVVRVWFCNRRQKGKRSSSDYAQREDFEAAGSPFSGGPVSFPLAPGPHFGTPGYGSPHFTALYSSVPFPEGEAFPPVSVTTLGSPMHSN
UniProt P49137: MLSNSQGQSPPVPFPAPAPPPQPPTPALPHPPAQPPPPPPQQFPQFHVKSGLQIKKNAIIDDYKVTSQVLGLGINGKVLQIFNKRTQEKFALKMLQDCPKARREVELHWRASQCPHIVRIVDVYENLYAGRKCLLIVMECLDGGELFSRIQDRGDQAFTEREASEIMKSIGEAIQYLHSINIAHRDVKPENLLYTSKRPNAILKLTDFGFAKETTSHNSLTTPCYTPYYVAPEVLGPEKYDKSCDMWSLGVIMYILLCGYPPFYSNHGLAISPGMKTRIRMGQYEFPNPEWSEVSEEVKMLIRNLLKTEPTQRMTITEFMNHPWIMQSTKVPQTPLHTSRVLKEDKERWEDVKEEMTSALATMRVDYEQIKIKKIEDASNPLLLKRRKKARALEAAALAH
UniProt P78527: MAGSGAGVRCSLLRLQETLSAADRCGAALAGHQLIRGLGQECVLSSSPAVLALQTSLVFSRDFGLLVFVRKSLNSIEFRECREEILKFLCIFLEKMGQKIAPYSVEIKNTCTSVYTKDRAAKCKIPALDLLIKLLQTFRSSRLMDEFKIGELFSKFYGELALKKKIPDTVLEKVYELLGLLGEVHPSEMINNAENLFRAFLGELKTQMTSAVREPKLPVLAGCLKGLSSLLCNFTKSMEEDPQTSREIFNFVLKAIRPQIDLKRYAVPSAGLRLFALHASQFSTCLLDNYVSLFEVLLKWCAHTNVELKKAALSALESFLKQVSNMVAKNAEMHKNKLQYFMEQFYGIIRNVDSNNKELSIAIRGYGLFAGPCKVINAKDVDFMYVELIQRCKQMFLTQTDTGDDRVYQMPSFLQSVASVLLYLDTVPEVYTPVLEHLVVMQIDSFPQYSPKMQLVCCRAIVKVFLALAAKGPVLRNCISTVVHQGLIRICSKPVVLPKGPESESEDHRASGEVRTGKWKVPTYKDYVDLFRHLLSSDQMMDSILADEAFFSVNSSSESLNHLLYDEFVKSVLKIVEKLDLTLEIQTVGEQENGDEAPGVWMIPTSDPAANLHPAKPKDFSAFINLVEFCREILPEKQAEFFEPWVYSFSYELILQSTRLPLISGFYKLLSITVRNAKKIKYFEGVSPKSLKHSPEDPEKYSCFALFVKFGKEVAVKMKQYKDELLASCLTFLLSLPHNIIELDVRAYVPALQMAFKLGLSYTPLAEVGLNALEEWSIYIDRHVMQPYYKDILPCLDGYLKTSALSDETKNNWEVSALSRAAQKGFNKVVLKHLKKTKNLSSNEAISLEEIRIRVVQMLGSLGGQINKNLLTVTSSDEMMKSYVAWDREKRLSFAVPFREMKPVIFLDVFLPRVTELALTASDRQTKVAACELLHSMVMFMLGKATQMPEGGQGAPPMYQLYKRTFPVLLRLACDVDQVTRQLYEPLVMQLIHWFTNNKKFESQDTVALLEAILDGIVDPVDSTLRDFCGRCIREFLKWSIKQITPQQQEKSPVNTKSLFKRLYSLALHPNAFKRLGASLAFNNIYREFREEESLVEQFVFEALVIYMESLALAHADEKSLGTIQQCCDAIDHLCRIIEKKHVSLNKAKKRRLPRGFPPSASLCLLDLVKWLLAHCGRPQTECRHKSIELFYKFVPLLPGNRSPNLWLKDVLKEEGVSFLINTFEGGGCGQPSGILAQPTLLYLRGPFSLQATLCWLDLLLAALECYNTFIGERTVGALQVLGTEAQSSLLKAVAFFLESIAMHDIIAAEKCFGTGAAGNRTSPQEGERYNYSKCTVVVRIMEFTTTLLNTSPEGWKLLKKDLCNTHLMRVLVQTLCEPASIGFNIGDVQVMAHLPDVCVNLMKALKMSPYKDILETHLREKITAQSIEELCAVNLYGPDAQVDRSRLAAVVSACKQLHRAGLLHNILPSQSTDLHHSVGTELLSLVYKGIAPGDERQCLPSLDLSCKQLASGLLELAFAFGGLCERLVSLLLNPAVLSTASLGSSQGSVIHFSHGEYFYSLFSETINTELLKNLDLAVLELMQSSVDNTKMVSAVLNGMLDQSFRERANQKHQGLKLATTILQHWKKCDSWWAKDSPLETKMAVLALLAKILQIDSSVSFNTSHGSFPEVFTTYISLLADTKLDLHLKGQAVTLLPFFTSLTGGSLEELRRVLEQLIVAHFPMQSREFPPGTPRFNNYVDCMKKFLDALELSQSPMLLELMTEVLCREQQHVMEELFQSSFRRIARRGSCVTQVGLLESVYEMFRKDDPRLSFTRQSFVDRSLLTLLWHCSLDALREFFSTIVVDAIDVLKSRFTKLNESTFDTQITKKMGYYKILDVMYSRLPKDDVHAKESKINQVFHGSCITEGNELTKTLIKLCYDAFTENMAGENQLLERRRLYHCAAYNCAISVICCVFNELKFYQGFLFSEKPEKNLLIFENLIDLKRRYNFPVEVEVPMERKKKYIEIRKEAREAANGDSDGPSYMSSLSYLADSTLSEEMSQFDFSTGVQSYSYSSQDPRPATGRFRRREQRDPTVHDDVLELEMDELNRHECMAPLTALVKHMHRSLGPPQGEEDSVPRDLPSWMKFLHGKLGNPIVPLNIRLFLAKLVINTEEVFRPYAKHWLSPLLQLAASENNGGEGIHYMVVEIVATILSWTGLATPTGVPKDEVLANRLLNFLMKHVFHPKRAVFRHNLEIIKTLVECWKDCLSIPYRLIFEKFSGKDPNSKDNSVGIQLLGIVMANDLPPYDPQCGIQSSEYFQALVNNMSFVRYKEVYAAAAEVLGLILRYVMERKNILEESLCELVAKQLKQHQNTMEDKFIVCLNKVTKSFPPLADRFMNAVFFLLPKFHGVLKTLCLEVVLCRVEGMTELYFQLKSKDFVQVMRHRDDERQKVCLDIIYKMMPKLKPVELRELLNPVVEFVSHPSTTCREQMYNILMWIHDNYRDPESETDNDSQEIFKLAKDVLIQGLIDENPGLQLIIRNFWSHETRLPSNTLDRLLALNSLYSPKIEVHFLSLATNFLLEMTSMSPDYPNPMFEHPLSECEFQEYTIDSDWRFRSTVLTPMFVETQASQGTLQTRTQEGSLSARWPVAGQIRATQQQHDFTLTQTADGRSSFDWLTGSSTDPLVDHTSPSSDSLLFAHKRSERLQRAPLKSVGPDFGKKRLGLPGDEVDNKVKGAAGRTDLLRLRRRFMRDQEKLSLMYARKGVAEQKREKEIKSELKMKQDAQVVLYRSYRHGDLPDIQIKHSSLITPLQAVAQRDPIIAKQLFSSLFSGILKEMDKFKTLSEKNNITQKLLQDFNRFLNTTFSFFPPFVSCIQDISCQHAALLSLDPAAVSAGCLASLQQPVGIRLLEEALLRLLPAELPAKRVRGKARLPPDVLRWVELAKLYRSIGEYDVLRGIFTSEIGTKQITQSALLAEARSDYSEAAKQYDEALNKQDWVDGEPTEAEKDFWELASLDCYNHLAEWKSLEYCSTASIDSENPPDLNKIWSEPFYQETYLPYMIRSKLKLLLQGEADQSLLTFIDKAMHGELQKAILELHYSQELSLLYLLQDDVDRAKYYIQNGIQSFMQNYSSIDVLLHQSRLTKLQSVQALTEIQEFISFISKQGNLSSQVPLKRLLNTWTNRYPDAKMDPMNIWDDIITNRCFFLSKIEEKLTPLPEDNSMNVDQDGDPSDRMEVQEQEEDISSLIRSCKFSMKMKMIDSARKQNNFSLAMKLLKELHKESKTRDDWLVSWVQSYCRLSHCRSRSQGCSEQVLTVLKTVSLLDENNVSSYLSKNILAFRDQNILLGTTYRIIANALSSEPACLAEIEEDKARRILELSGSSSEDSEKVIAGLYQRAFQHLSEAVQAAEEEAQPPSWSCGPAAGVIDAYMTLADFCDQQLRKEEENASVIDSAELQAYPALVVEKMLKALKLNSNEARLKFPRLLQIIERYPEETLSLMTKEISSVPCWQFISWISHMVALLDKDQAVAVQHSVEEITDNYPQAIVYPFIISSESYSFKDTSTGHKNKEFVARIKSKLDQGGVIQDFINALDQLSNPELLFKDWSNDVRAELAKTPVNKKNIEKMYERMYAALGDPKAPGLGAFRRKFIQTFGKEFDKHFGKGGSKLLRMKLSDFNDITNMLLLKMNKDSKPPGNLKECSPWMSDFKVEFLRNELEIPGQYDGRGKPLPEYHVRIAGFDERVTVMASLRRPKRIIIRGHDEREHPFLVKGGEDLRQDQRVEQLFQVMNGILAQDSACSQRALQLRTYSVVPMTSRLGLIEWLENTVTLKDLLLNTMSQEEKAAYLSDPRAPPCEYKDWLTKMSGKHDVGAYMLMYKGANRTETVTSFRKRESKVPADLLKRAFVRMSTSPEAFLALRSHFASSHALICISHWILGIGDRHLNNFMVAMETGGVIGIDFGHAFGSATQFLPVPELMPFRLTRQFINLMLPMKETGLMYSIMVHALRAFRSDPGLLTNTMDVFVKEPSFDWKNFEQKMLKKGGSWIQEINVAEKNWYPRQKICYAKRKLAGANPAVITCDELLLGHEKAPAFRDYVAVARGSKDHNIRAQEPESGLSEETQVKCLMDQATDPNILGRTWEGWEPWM

These are yes or no findings as the source states them, for the method shown. For some of these results: Binding seen in cells or lysates may run through a third protein. Some entries that bind do so weakly or less than the wild type.

For “COOH-terminal mycDDK-tagged human recombinant MK2 protein (from UniProt P49137 1-400) (enzyme)”, the binding result in test [1] is listed as “binds”.
On to “DNA-PKcs, endogenous (from UniProt P78527 1-4128) (enzyme)”, for which the binding entry in test [2] was “binds”.
On the same count and under the same terms, the entry for “MAPKAPK2 (MK2), endogenous (from UniProt P49137 1-400) (enzyme)” is “binds”.
“NH2-terminal His-tagged human recombinant OCT4 protein (from UniProt Q01860 1-360)”: in test [3], the binding entry is “binds”.

These data come from publication PMC7224192, “MYC transcription activation mediated by OCT4 as a mechanism of resistance to 13-cisRA-mediated differentiation in neuroblastoma”.
